Screening data

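Uptake of anthrax lethal toxin into cultured cells, read by FRET (460/530 nm ratio) and reported from the 460 nm channel; the cell line is not named here.
Each compound was tested as a concentration series from about 0.0005 to 40 µM.
The number is the fitted AC50 of the 460 nm signal alone; lower values mean a more potent effect. A falling signal goes with compounds filed as inhibitors or cytotoxic, a rising one with activators or fluorescent compounds (inferred from the filed classes).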

Values are in µM.
Common to all entries: measured here: 460 nm channel.
Part of the compounds only, not a random draw; the main read-out is not listed here.
Potencies fitted to partial, single-point or poorly fitting curves are rough.
The first word of each remark tells which way the curve ran; it can be opposite to the aim of the assay.

| compound | AC50 (µM) | curve as filed |
|---|---|---|
| `COC(=O)c1c(C)[nH]c(C)c1-c1ccccc1` | 3.162 | rising, single point |
| `COc1ccc(C(=O)NCCn2ccc3ccccc32)cc1OC` | 12.59 | falling, partial curve |
| `Cc1ccc(Cl)cc1N1CCN(C(=O)Cn2ccc3ccccc3c2=O)CC1` | 31.62 | falling, single point |
| `O=C(Nc1ccc2c(c1)oc1ccccc12)c1ccncc1` | 3.981 | falling, partial curve |
| `O=C(O)[C@@H](O)[C@@H](O)[C@@H](O)[C@@H](O)c1nc2ccccc2s1` | 0.7943 | falling, single point |
| `COc1ccc(CNC(=O)[C@H]2C[C@@H]2[C@H](NP(=O)(c2ccccc2)c2ccccc2)c2ccccc2)cc1OC` | 5.012 | falling, single point |
| `FC(F)(F)COc1nc(OCC(F)(F)F)nc(N2CCN(c3ccccc3)CC2)n1` | 12.59 | falling, single point |
| `O=c1c(-c2cccs2)nc2cnc(N3CCNCC3)nc2n1-c1ccccc1` | 1.585 | rising, full curve |
| `Cc1ccc(C2C(C(=O)c3sc(C)nc3C)=C(O)C(=O)N2CCN(C)C)o1` (stereo not given) | 0.3162 | falling, full curve |
| `Cc1nc2ncnn2c(C)c1CCC(=O)O` | 1.259 | falling, partial curve, poor fit |
| `Cc1ccc(OC[C@H](O)[C@H](C)NC(C)C)c2c1CCC2` | 31.62 | falling, single point |
| `N#Cc1cc2ccccc2nc1SCc1ccccn1` | 19.95 | falling, partial curve |
| `COc1ccc(-n2c(=O)c(-c3ccc(Cl)cc3)nc3cnc(N4CCNCC4)nc32)cc1` | 3.162 | rising, full curve |
| `N#Cc1cccc(NC(=O)N2CCCC3(CCN(S(=O)(=O)c4ccccc4)CC3)C2)c1` | 12.59 | falling, partial curve |
| `COc1ccccc1CNc1ncncc1-c1cccnc1` | 0.1259 | falling, full curve |
| `COc1ccc(CNc2nc(-c3cccc(NS(C)(=O)=O)c3)nc3ccccc23)c(OC)c1` | 10 | falling, single point |
| `Cc1ccccc1-c1ccc2ncnc(NCc3cccnc3)c2c1` | 15.85 | rising, partial curve |
| `O=C(CN1CCCC1)Nc1ccc(NC(=O)Nc2ccccc2Cl)cc1` | 1.585 | falling, full curve, poor fit |
| `C[C@@H](C(=O)Nc1ccc2ccccc2c1)[C@H]1C[C@]1(C)[C@H](NC(=O)OCc1ccccc1)c1ccccc1` | 5.012 | falling, partial curve |
| `Cc1ccccc1-c1nc(N(C)Cc2ccco2)c2ccccc2n1` | 10 | falling, single point |
| `CCNc1cc2oc(=O)c(CN3CCOCC3)c(C)c2cc1C` | 15.85 | rising, partial curve |
| `Cc1c(C(=O)c2cccc3ccccc23)c2cccc3c2n1[C@H](CN1CCOCC1)CO3` | 2.512 | falling, full curve |
| `COc1ccc(CC(C)N2CCN(c3ccccc3OC)CC2)cc1OC` (stereo not given) | 10 | falling, single point |
| `CC(O)c1ccc2c(c1)OCCOCCN(C)CCOCCO2` (stereo not given) | 3.981 | falling, single point |
| `O=C(COc1ccc(Cl)cc1)NCc1nnc(SCC(=O)NC2CCCCC2)o1` | 5.012 | rising, single point |
| `Cn1cc(-c2nc3cnc(N4CCOCC4)nc3n(CCC#N)c2=O)c2ccccc21` | 0.5012 | rising, partial curve |
| `CCNc1ncc2nc(-c3ccc(F)cc3)c(=O)n(CCc3ccccc3)c2n1` | 0.2512 | rising, full curve |
| `COc1cc(Cl)c(C)cc1NC(=O)CSc1nnc(-c2ccccn2)n1Cc1ccco1` | 19.95 | rising, single point |
| `O=C(c1cccc(F)c1)N1CCN(Cc2ccco2)CC1` | 0.01 | rising, full curve, poor fit |
| `CCCCCCN(C(=O)CCCCCN1C(=O)NC(C2CC2)C(C(=O)OCc2ccccc2)=C1C)C(C(=O)NCCCC)c1ccc(OCC(=O)OC)c(C(=O)OC)c1` (stereo not given) | 31.62 | falling, single point |
| `CC(=O)OCC1OC(C#CCCCc2ccccc2)C=CC1OC(C)=O` (stereo not given) | 0.7943 | falling, single point |
| `CCCCNC(=O)C1CCN(S(=O)(=O)c2cnc[nH]2)CC1` | 5.012 | falling, single point |
| `c1ccc(Nc2cc(Nc3ccccc3)[nH]n2)cc1` | 10 | falling, partial curve |
| `COc1ccc(S(=O)(=O)NCc2ccccn2)cc1Cl` | 0.3981 | falling, full curve |
| `COc1cc(C(=O)O[C@@H]2CC(C)=CC[C@@]3(C)CC[C@](O)(C(C)C)[C@H]23)ccc1O` | 31.62 | falling, partial curve |
| `N=c1c(C(=O)NCc2ccco2)cc2c(=O)n3ccccc3nc2n1CCc1ccccc1` | 1.995 | rising, partial curve |
| `CN(C)S(=O)(=O)c1ccc(NS(=O)(=O)/C=C/c2ccccc2)cc1` | 0.03162 | rising, full curve, poor fit |

The first 4 entries again:

compound,AC50 (µM),curve as filed
COC(=O)c1c(C)[nH]c(C)c1-c1ccccc1,3.162,"rising, single point"
COc1ccc(C(=O)NCCn2ccc3ccccc32)cc1OC,12.59,"falling, partial curve"
Cc1ccc(Cl)cc1N1CCN(C(=O)Cn2ccc3ccccc3c2=O)CC1,31.62,"falling, single point"
O=C(Nc1ccc2c(c1)oc1ccccc12)c1ccncc1,3.981,"falling, partial curve"

Source: PubChem BioAssay AID912 (NCATS, 2007).